Measured values from paper PMC11292196 (Cancer Research, 2024).

Test system: KARPAS-422 cells
Assay: cells
Assay type: cell-based
Details: Homo sapiens, KARPAS-422, read-out: IC50, KARPAS-422 cell proliferation

IC50: 322 nM
SMILES: CCN(c1cc(-c2ccc(CN3CCOCC3)cc2)cc(C(=O)NCc2c(C)cc(C)[nH]c2=O)c1C)C1CCOCC1 [Tazemetostat]
